Reference: patent US7785835
No constants are given. Whether binding was seen depends on the method and setting. Some binding calls cover weakened binding; strength is not graded here.

Chains of the proteins cited; added tags and fusions are not shown. Residues count along the entry.
UniProt P04004, residues 20-478: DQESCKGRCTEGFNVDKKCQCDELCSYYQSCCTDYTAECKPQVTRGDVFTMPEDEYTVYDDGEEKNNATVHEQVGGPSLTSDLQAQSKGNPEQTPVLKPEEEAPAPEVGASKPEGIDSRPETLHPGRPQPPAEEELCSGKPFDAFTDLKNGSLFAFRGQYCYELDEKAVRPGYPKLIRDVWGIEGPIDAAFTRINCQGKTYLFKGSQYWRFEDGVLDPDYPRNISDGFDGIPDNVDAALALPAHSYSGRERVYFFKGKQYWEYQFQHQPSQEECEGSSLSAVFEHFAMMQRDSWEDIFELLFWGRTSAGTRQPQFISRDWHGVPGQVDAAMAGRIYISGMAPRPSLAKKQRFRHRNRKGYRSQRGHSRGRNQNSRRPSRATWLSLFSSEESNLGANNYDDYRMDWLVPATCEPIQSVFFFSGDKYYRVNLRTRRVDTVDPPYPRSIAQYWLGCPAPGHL

Target: vitronectin (UniProt P04004)
Experiment: [^125I]-IGF-I bound to VN-coated wells in the presence of IGFBP

binding: binds
B1: recombinant IGFBP-4 produced in mammalian cells (protein, UniProt P22692 22-258, looked up)
chain: DEAIHCPPCSEEKLARCRPPVGCEELVREPGCGCCATCALGLGMPCGVYTPRCGSGLRCYPPRGVEKPLHTLMHGQGVCMELAEIEAIQESLQPSDKDEGDHPNNSFSPCSAHDRRCLQKHFAKIRDRSTSGGKMKVNGAPREDARPVPQGSCQSELHRALERLAASQSRTHEDLYIIPIPNCDRNGNFHPKQCHPALDGQRGKCWCVDRKTGVKLPGGLEPKGELDCHQLADSFRE
